The record followed here is the supplement of paper PMC10849652.

Chains of the proteins cited; added tags and fusions are not shown. Lines headed by an entry give the natural chain unless they say otherwise; changes in a name come on top.
UniProt P09917: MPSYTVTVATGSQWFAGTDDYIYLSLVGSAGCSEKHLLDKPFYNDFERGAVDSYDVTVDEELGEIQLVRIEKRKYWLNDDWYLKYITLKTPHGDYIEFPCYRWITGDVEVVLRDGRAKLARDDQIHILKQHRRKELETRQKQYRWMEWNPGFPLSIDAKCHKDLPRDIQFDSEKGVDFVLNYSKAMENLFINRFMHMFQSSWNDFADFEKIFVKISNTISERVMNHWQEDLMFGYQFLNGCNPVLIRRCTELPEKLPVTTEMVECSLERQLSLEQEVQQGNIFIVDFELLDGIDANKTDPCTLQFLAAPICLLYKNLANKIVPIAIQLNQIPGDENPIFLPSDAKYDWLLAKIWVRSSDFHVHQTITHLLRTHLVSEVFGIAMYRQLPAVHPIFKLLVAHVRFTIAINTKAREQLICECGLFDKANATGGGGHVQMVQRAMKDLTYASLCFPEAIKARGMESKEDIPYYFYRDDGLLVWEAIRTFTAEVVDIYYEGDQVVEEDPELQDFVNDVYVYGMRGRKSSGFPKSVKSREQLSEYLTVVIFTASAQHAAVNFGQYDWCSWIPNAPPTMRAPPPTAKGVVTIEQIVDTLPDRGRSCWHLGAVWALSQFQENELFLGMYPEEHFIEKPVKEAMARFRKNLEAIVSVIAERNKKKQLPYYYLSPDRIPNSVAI
UniProt P13196: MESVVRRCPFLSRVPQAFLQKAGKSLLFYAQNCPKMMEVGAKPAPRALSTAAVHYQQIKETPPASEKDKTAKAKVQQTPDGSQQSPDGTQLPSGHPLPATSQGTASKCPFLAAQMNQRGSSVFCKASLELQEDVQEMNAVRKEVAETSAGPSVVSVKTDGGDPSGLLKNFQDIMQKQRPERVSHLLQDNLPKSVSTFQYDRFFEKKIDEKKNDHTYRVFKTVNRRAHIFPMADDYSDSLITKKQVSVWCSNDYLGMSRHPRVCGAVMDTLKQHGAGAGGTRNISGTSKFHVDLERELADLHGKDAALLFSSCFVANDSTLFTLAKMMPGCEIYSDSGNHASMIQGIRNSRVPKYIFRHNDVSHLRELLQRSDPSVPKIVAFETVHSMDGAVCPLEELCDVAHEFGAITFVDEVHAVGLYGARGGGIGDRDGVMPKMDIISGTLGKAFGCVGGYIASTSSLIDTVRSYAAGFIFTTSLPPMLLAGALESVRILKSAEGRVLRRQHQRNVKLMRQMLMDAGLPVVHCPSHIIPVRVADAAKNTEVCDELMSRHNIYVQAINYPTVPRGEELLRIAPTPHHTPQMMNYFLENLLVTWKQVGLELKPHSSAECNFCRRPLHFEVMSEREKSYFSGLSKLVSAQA
UniProt Q9NP73: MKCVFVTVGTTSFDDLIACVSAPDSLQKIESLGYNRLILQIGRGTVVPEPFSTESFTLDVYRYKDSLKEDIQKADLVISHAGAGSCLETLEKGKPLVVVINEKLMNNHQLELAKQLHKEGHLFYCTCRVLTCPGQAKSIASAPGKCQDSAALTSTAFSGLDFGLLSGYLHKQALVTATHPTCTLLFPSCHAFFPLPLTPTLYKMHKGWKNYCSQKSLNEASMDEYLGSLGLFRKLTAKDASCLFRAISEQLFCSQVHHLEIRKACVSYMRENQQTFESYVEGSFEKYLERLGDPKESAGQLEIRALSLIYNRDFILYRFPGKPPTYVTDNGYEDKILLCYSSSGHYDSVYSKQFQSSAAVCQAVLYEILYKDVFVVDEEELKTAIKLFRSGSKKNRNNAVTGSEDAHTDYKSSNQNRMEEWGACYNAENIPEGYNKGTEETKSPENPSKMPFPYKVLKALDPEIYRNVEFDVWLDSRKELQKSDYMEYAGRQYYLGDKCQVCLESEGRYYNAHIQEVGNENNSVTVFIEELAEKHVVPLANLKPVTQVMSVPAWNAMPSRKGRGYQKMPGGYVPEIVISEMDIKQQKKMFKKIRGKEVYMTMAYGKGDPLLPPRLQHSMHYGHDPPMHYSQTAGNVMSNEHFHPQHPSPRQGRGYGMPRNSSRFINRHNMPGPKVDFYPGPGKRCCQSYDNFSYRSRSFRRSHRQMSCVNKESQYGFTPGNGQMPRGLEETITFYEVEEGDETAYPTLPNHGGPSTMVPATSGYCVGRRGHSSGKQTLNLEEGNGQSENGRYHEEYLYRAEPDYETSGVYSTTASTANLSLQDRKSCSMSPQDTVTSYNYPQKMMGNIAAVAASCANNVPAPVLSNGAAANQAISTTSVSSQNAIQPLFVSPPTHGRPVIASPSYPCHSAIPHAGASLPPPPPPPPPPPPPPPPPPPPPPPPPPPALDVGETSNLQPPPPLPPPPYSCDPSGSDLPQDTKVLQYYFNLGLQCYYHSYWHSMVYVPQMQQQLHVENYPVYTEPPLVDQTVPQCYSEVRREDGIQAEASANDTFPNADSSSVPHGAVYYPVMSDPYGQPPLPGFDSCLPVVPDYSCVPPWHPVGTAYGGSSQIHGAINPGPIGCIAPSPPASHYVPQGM
UniProt Q9BXX3: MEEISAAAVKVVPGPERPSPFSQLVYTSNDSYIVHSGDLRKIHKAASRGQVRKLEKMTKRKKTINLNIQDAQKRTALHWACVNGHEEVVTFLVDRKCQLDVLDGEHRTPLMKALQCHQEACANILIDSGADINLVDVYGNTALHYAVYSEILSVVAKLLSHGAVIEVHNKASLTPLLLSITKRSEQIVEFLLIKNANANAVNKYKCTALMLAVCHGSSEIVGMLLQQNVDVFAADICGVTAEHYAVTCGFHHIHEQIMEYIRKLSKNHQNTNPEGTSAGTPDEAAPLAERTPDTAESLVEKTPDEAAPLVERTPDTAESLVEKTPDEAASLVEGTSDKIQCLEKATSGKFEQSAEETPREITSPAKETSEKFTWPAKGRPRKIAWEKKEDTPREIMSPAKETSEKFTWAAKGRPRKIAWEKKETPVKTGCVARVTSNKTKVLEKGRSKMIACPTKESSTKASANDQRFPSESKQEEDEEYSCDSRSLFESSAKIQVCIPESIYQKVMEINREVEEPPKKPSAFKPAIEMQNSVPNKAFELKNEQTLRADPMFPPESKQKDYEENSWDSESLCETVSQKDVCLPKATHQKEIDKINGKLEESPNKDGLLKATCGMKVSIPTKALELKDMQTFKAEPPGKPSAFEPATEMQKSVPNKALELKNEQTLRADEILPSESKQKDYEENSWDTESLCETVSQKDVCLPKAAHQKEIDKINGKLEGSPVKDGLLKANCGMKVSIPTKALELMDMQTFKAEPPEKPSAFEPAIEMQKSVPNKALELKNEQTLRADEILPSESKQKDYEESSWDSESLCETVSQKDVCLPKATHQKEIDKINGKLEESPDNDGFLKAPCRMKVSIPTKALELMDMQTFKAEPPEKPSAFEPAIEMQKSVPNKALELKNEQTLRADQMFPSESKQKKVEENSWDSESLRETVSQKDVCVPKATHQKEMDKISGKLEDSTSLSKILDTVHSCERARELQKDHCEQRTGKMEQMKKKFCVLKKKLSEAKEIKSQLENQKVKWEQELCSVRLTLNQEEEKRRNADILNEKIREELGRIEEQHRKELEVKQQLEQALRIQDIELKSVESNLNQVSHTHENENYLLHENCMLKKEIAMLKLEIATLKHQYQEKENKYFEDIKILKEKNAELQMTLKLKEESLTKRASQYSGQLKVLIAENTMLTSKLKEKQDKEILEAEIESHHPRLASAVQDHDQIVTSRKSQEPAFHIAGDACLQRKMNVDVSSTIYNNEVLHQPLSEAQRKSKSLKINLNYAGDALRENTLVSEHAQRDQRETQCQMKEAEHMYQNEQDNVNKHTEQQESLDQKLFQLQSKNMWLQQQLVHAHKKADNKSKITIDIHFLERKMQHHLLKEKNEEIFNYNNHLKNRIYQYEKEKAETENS
UniProt Q3KRA9: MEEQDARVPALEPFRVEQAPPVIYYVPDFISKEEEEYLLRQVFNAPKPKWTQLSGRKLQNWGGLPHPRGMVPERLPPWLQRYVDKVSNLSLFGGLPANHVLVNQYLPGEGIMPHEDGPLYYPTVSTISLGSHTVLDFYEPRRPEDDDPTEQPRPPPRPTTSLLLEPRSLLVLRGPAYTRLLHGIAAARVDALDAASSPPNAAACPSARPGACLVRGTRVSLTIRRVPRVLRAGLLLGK
UniProt Q86W74: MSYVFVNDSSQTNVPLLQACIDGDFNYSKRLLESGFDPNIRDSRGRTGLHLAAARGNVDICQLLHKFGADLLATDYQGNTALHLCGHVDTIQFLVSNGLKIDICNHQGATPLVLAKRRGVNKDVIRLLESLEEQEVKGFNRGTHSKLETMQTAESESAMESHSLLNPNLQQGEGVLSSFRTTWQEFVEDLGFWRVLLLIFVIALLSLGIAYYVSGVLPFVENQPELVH
UniProt Q9ULJ7: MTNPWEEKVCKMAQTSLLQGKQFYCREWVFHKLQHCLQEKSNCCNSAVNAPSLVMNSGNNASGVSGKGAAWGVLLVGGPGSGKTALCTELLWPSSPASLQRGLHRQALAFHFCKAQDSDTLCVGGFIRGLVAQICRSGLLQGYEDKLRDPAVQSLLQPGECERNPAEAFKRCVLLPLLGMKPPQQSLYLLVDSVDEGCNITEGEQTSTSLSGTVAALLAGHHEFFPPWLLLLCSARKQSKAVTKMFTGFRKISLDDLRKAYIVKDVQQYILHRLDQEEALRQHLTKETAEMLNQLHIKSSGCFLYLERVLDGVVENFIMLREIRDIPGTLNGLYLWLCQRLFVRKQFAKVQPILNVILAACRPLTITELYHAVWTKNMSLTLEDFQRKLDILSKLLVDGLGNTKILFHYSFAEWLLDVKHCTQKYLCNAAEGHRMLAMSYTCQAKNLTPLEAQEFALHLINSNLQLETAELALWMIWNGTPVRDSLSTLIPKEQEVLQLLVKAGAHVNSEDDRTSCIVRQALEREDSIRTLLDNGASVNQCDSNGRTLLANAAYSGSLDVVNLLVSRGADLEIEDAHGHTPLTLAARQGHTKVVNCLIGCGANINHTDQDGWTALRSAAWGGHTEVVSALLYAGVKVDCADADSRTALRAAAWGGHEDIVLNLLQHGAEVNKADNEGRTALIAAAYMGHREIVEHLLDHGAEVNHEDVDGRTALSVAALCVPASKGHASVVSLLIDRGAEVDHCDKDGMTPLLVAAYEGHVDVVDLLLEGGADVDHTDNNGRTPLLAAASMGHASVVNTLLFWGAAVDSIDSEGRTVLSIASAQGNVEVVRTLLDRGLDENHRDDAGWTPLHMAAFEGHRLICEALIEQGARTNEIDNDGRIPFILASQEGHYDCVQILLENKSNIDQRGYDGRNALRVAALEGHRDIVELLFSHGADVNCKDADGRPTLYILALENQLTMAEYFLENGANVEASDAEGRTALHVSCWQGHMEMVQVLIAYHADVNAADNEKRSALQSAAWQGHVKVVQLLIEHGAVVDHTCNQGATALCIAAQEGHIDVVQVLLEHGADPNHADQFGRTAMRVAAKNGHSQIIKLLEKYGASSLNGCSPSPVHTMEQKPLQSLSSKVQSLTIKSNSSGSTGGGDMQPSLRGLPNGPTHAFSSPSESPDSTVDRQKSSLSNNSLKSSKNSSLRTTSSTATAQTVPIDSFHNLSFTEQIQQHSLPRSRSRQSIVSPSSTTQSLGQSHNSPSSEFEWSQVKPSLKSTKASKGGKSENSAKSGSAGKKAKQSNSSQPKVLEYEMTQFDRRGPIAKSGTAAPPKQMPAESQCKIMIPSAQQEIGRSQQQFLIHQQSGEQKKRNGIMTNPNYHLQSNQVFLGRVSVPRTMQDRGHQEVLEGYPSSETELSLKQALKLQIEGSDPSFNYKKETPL
UniProt Q13686: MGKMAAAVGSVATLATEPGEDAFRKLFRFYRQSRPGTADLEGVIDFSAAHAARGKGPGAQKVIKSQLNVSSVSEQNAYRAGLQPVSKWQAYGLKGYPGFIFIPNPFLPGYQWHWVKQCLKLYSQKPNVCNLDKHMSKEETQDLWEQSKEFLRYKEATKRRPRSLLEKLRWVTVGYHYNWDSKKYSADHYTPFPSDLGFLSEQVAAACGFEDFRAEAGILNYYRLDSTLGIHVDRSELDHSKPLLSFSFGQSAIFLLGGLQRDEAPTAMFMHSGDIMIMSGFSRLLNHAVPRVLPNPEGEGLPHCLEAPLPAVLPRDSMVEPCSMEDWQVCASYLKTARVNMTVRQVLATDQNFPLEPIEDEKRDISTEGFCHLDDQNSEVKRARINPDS
UniProt Q6DCA0: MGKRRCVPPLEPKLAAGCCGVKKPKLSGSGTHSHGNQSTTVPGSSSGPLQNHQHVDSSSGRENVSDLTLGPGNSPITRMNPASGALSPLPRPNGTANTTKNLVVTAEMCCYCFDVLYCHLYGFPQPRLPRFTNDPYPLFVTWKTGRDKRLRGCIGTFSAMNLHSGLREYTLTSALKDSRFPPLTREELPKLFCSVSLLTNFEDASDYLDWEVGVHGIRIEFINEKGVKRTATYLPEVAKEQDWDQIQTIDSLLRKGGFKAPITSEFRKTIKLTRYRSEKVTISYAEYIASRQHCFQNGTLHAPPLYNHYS

This is one part of the list.

Compound in this test: c1ccc([C@@H]2C[C@H]2NC2CCNCC2)cc1
Put plainly: log2 fold change, soluble protein after heating vs DMSO (PISA); higher = thermal stabilisation; K562 lysate, 10 uM; active = over 0.2 and 3.5 SD of the protein, either way, in both replicates (recomputed). In a few lines:
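The values are log-two fold changes in thermal stability compared with solvent controls and come from duplicates. They were obtained by TMTpro 16plex LC-MS/MS, with channel sums equalised, on the supernatant after 21,000xg for 90 min. That supernatant came from crude K562 extract at 1 mg/mL protein treated with 10 μM compound for 30 min, heated for 3 min across 48°C-58°C, pooled and brought to 0.5% NP-40 at 4°C.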
As to ALOX5 (UniProt P09917), the log2 fold change is inactive: -0.149.

As for ANKRD39 (UniProt Q53RE8), the log2 fold change is inactive: 0.093.

As for ANXA2 (UniProt H0YL33), the log2 fold change is inactive: 0.466.

AMBRA1 isoform 5 (UniProt Q9C0C7): the log2 fold change was inactive: 0.031.

AMDHD2 (UniProt Q9Y303): the log2 fold change is inactive: 0.095.

In the case of ANKRD11 (UniProt Q6UB99), the log2 fold change was inactive: 0.323.

ALOX12B (UniProt O75342): the log2 fold change was inactive: 0.05.

For the target ALAS1 (UniProt P13196), the log2 fold change is inactive: 0.01.

Consider ALG13 isoform 2 (UniProt Q9NP73), for which the log2 fold change was inactive: -0.109.

Consider ANGEL1 (UniProt Q9UNK9), for which the log2 fold change is inactive: 0.002.

For ANKRD30A (UniProt Q9BXX3), the log2 fold change is inactive: 0.064.

Take ANAPC16 (UniProt Q96DE5): the log2 fold change is inactive: 0.049.

Turning to AMIGO2 (UniProt Q86SJ2), the log2 fold change is inactive: 0.045.

As for AP2S1 (UniProt M0QZ21), the log2 fold change was inactive: -0.035.

With ALKBH6 isoform 2 (UniProt Q3KRA9), the log2 fold change was inactive: 0.038.

Take ANKRD46 (UniProt Q86W74): the log2 fold change is inactive: -0.069.

For the target ANAPC15 isoform 2 (UniProt P60006), the log2 fold change is inactive: -0.05.

Consider AMFR (UniProt Q9UKV5), for which the log2 fold change was inactive: -0.065.

Turning to ANKRD50 (UniProt Q9ULJ7), the log2 fold change was inactive: 0.028.

Regarding ALKBH1 (UniProt Q13686), the log2 fold change is inactive: 0.051.

For the target ALDH3A1 (UniProt P30838), the log2 fold change is inactive: -0.339.

As to AMN1 (UniProt Q8IY45), the log2 fold change was inactive: 0.104.

For ANKRD16 (UniProt Q6P6B7), the log2 fold change was inactive: -0.004.

Consider ANK2 (UniProt Q01484), for which the log2 fold change was inactive: 0.127.

Take ALG10B (UniProt Q5I7T1): the log2 fold change is inactive: 0.048.

As to AP3D1 isoform 2 (UniProt O14617), the log2 fold change was inactive: 0.061.

In the case of ALKBH7 (UniProt Q9BT30), the log2 fold change is inactive: -0.014.

For the target ALDH3A2 isoform 2 (UniProt P51648), the log2 fold change was inactive: -0.132.

AMMECR1L (UniProt Q6DCA0): the log2 fold change was inactive: 0.036.
